Measurements from patent US20240279288A1, “APPLICATION OF PLANT JAZ PROTEINS AND DERIVED POLYPEPTIDES IN PREVENTION AND TREATMENT OF HUMAN AND ANIMAL TUMORS” (ANYANG INSTITUTE OF SINO-COTTON INDUSTRY INNOVATION, priority 2021, published 2024).
These are yes or no findings as the source states them, for the method shown. For some of these results: In cells and extracts the contact can be indirect. Some binding calls cover weakened binding; strength is not graded here.

Amino acid sequences for entries named in this document (tags omitted). Residues count along the entry.
UniProt Q03405, residues 23-335: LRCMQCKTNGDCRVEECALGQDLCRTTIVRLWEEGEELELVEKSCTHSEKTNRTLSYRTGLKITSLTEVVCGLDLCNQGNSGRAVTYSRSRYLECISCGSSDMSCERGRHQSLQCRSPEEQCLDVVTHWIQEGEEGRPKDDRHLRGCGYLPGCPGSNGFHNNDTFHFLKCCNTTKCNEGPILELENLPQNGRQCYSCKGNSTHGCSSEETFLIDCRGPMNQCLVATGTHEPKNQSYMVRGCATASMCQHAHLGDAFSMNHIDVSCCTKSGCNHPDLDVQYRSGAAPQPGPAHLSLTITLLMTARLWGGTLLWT

How the values were obtained:
[1] = target: ATF domain of uPA (UniProt P00749); experiment: yeast two hybrid
[2] = target: uPAR (UniProt Q03405); experiment: CO-IP
[3] = target: uPAR (UniProt Q03405); experiment: CO-IP (FIG. 10B)
[4] = target: uPAR (UniProt Q03405); experiment: yeast two hybrid screen of tumor surface receptors

Measured: binding

B1: GhJAZ1 (protein)
chain: MSSCSESTAMKPARSPEKPSFAQTCNLLSQYLKEKGSFGDLSLGMTCNVEANGTPVVPPPTMNLFPLNDKSDDVCGRNGGNPKNLTSMDLFPQQAGLASKDDSPNKLEPQTAPMTIFYGGQVIVFNDFPANKAKEIMLLASNSSSQSNNSFNPIPFTSSIARSPIESSIGVPPTSKPVHPAQRAVPGDLPIARRASLHRFLEKRKDRITAKAPYQINNSAAAPSLSGDNKSWLGLAAQSP
binds: all assays above
